Laboratory results from PubChem BioAssay AID2685 (National Center for Advancing Translational Sciences (NCATS), 2010).
This is one part of the list. Shown are side measurements of this screen, not its main read-out; they come without a call. The list favours compounds with an active or inconclusive main result. Potencies come from curve fits of mixed quality, noted in brackets.

Assay: qHTS Assay for Lipid Storage Modulators in Drosophila S3 Cells;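 as to cell number change: cells counted by Cell Tracker Red CMTPX staining in the red channel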
Conditions: BODIPY lipid droplet fluorescence, 18-24 h; for cell number change: measured here: cell count max response, cells fed with added oleic acid
Method in brief: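 Laser-scanning cytometry quantifies lipid droplet accumulation (500–530 nm total intensity; droplet/cell object ratio) in oleic acid-fed (400 uM added) Drosophila S3 cells treated with a concentration series. 20 uM Triacsin C defined 100% inhibition.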

[1] = measured here: cell number channel AC50, cells fed with added oleic acid
[2] = measured here: lipid fluorescence (Fed channel) AC50, cells fed with added oleic acid

Row | SMILES | cell number change [%] | AC50 [1] | AC50 [2]
1 | O=S1(=O)[C@H]2C[C@@H]3C=C[C@@]2(CN1Cc1ccc(F)cc1)O3 | 10.5 | 6.51 µM [rising, partial curve] | 
2 | COc1ccc(C(=O)NC(=S)Nc2ccc(N3CCOCC3)cc2)cc1Cl | 4.17 |  | 
3 | CCOc1ccccc1NC(=O)NC1CCN(CC(=O)Nc2ccc3c(c2)OCCO3)CC1 | -2.81 |  | 3.26 µM [rising, partial curve]
4 | CC(C)C(NC(=O)c1ccc(C(C)(C)C)cc1)C(=O)N1CCCC1 (stereo unspecified) | 6.35 |  | 20.6 µM [rising, single point]
5 | N#Cc1c2ccc([N+](=O)[O-])cc2[n+]([O-])n1-c1ccccc1 | -60.2 | 16.4 µM [falling, partial curve] | 2.59 µM [falling, full curve]
6 | COC(=O)c1sccc1NC(=S)N1CCN(c2cc(C)ccc2C)CC1 | 29 |  | 9.2 µM [rising, partial curve]
7 | COc1cc2[nH]c(C(=O)Nc3ccc(F)cc3)cc2c(OC)c1OC | -7.04 |  | 0.58 µM [rising, single point]
8 | CCOC(=O)c1sc(NC(=O)c2ccc(S(=O)(=O)N3CCCCC3)cc2)nc1-c1ccccc1 | -3.6 |  | 29.1 µM [rising, partial curve, poor fit]
9 | O=c1[nH]cnc2c1c(-c1ccccc1)cn2-c1ccc(Br)cc1 | 8.75 |  | 18.4 µM [rising, single point]
10 | CCC(CC)N1CCN(Cc2nc3ccc([N+](=O)[O-])cc3c(=O)n2-c2ccccc2F)CC1 | 16.1 |  | 6.51 µM [rising, partial curve]
11 | O=S(=O)(Cc1cccc(F)c1)c1c[nH]c2ccccc12 | 0.173 |  | 2.06 µM [rising, partial curve]
12 | COc1ccc(OCc2cccc(C(=O)Nn3cc([N+](=O)[O-])cn3)c2)cc1 | -21.5 |  | 
13 | COc1ccc(NC(=O)CSCc2ccc(C#N)cc2)c(OC)c1 | -10.8 |  | 
14 | O=C(CN(C(=O)CCC(=O)Nc1nccs1)c1cccc(F)c1)NCc1ccc(F)cc1 | 62.6 | 29.1 µM [rising, single point] | 
15 | CCNC(=S)NN=C1c2ccccc2-c2ccccc21 | 90.8 | 23.1 µM [rising, single point] | 20.6 µM [rising, partial curve]
16 | CCCCNC(=O)Cn1c2c(c(-c3ccccc3Cl)cc1=O)CCC2 | 25.6 |  | 18.4 µM [rising, partial curve, poor fit]
17 | O=C(COC(=O)Cc1cccc(F)c1)NC(=O)NC1CCCCC1 | 14.1 |  | 
18 | CC(CCc1ccccc1)NS(=O)(=O)c1ccccc1 (stereo unspecified) | 5.93 |  | 
19 | Cc1cc(N2CCN(C)CC2)nc2ccc(NC(=S)N3CCN(c4ccccn4)CC3)cc12 | 12.8 |  | 0.0231 µM [falling, full curve, poor fit]
20 | Cc1cccc(NC(=O)COc2coc(CN3CCN(c4ccccc4)CC3)cc2=O)c1 | 58 | 7.31 µM [rising, partial curve] | 

Row | SMILES | cell number change [%] | AC50 [1] | AC50 [2]
21 | COC(=O)c1cn(Cc2ccccn2)c(=O)c2ccccc12 | 19.5 |  | 29.1 µM [rising, single point]
22 | Cc1ccc(C2=C/C(=C\c3cccnc3)C(=O)O2)cc1 | 1.33 |  | 29.1 µM [falling, single point]
23 | COc1cc(NC(=O)COC(=O)/C=C/c2ccc(Cl)cc2Cl)cc(OC)c1 | 30.9 |  | 
24 | CC1=NN(c2ccccc2)C(=O)/C1=C\c1cc(C)n(C)c1C | 1.69 |  | 23.1 µM [falling, single point]
25 | CC(C)(c1cc(Br)c(O)c(Br)c1)c1cc(Br)c(O)c(Br)c1 | 7.83 | 0.164 µM [falling, full curve] | 
26 | COc1cnc(SCc2ccc(Cl)c(Cl)c2)nc1Cl | 45.1 | 14.6 µM [rising, partial curve, poor fit] | 
27 | CS(=O)(=O)N(CC(=O)Nc1cccc(F)c1)Cc1ccccc1 |  | 6.51 µM [falling, single point] | 
28 | O=C(OCn1ncc(Cl)c(Cl)c1=O)c1ccc(C(F)(F)F)cc1 | -80.5 | 18.4 µM [falling, partial curve] | 11.6 µM [falling, partial curve]
29 | CCN(CC)S(=O)(=O)c1cc(C(=O)OCC(=O)c2ccc3c(c2)NC(=O)CO3)ccc1F | -20.3 |  | 
30 | CCOC(=O)c1ccc(-c2nnc(-c3ccc(Cl)cc3Cl)o2)cc1 | -1.62 |  | 0.58 µM [falling, single point]
31 | C/C(=N\NC(=S)NCc1ccccc1)c1ccco1 | -2.46 | 6.51 µM [rising, single point] | 1.3 µM [falling, full curve, poor fit]
32 | COC(=O)CSc1nnc(-c2c[nH]c3ccccc23)o1 | 11.7 |  | 
33 | O=C(CNC(=O)c1ccc(Br)o1)NNC(=O)c1ccc(Br)cc1 | -4.19 |  | 2.31 µM [rising, single point]
34 | COc1ccc(-c2c(-c3ccc(O)cc3O)n[nH]c2C)cc1OC |  | 0.184 µM [rising, partial curve, poor fit] | 0.82 µM [rising, full curve, poor fit]
35 | Cc1ccc(-n2c3c(c(=O)[nH]c2=S)C(C(F)(F)F)(C(F)(F)F)NC(=O)N3)cc1 | 34.8 | 29.1 µM [rising, single point] | 0.082 µM [rising, partial curve]
36 | CCN(CC(=O)Nc1ccc(S(=O)(=O)N2CCCC2)cc1)CC(=O)Nc1cccc(OC)c1 | -14.6 |  | 4.11 µM [falling, single point]
37 | O=C(CCCl)N1CCN(c2nc(-c3ccccc3)cs2)CC1 | -13.2 |  | 
38 | CC(=O)c1c(C)[nH]c(C(=O)CSc2nnc(-c3ccco3)o2)c1C | 17 |  | 0.0731 µM [rising, full curve, poor fit]
39 | COc1ccc(CN=C2Nc3ccccc3CS2)cc1 | -15.3 |  | 2.91 µM [falling, single point]
40 | CC(C)Oc1ccc(S(=O)(=O)N2CCOCC2)cc1NC(=O)C1=COCCO1 | 56.9 | 6.51 µM [falling, single point] | 6.51 µM [falling, single point]

A second format for some results above:
CCCCNC(=O)Cn1c2c(c(-c3ccccc3Cl)cc1=O)CCC2
  cell number change [%]: 25.6; AC50 [2]: 18.4 µM [rising, partial curve, poor fit]
C/C(=N\NC(=S)NCc1ccccc1)c1ccco1
  cell number change [%]: -2.46; AC50 [1]: 6.51 µM [rising, single point]; AC50 [2]: 1.3 µM [falling, full curve, poor fit]
O=C(CNC(=O)c1ccc(Br)o1)NNC(=O)c1ccc(Br)cc1
  cell number change [%]: -4.19; AC50 [2]: 2.31 µM [rising, single point]
